Values from PubChem BioAssay AID743121 (NCATS, 2013).

Screen: 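Knock-downs that sensitise breast cancer cells to camptothecin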 (primary screen)
Cell system: MDA-MB-231 cells, a human breast cancer line
Reagent: single siRNA against human genes, 20 nM siRNA (0.8 pmol per well)
Time to read-out: 120 h (drug added 48 h after transfection, read 72 h later)
Challenge: camptothecin 20 nM (about EC30) for 72 h; vehicle 0.1% DMSO in parallel plates
Detection: 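Cell viability by ATP luminescence (CellTiter-Glo) as % of non-targeting siRNA wells, and the log2 ratio of viability without drug over viability with camptothecin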
Reading the numbers: log2 vehicle/camptothecin viability: higher = stronger sensitisation to camptothecin
Active means: 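Active genes have an RSA gene-level p-value below 0.001, computed from the ratios of their separate siRNAs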
The whole screen tested about 26,000 reagents; shown is an unselected part. 167 of them (0.63%) were called active. 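Calls are per gene from RSA p-values that are not deposited; an individual active-marked siRNA can sensitise only weakly.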 Reagents against one gene are numbered here. Not all columns of the deposit are shown.

STX4 #1 — log2 vehicle/camptothecin viability = -0.344; call = inactive
STX4 #2 — log2 vehicle/camptothecin viability = 0.0623; call = inactive
STX4 #3 — log2 vehicle/camptothecin viability = -0.0815; call = inactive
STX4 #4 — log2 vehicle/camptothecin viability = 0.798; call = inactive
KCNC2 #1 — log2 vehicle/camptothecin viability = 0.58; call = inactive
KCNC2 #2 — log2 vehicle/camptothecin viability = 0.0254; call = inactive
KCNC2 #3 — log2 vehicle/camptothecin viability = 0.0607; call = inactive
MGLL #1 — log2 vehicle/camptothecin viability = -0.29; call = inactive
MGLL #2 — log2 vehicle/camptothecin viability = -0.39; call = inactive
MGLL #3 — log2 vehicle/camptothecin viability = -0.134; call = inactive
MGLL #4 — log2 vehicle/camptothecin viability = -0.104; call = inactive
CCRL2 #1 — log2 vehicle/camptothecin viability = -0.463; call = inactive
CCRL2 #2 — log2 vehicle/camptothecin viability = -0.307; call = inactive
CCRL2 #3 — log2 vehicle/camptothecin viability = -0.306; call = inactive
CCRL2 #4 — log2 vehicle/camptothecin viability = 0.0999; call = inactive
FBXL7 #1 — log2 vehicle/camptothecin viability = 0.0543; call = inactive
FBXL7 #2 — log2 vehicle/camptothecin viability = -0.0974; call = inactive
FBXL7 #3 — log2 vehicle/camptothecin viability = -0.631; call = inactive
FBXL7 #4 — log2 vehicle/camptothecin viability = -0.00726; call = inactive

Continued (5 carried over from the part before).
CCRL2 #4 — log2 vehicle/camptothecin viability = 0.0999; call = inactive
FBXL7 #1 — log2 vehicle/camptothecin viability = 0.0543; call = inactive
FBXL7 #2 — log2 vehicle/camptothecin viability = -0.0974; call = inactive
FBXL7 #3 — log2 vehicle/camptothecin viability = -0.631; call = inactive
FBXL7 #4 — log2 vehicle/camptothecin viability = -0.00726; call = inactive
KCNG4 #1 — log2 vehicle/camptothecin viability = -0.115; call = inactive
KCNG4 #2 — log2 vehicle/camptothecin viability = -0.113; call = inactive
KCNG4 #3 — log2 vehicle/camptothecin viability = -0.433; call = inactive
KCNG4 #4 — log2 vehicle/camptothecin viability = -0.929; call = inactive
CLEC4G #1 — log2 vehicle/camptothecin viability = 0.409; call = inactive
CLEC4G #2 — log2 vehicle/camptothecin viability = -0.129; call = inactive
CLEC4G #3 — log2 vehicle/camptothecin viability = -0.411; call = inactive
HMGA2 #1 — log2 vehicle/camptothecin viability = -0.0671; call = inactive
HMGA2 #2 — log2 vehicle/camptothecin viability = -0.173; call = inactive
HMGA2 #3 — log2 vehicle/camptothecin viability = -0.189; call = inactive
SSU72 #1 — log2 vehicle/camptothecin viability = -0.307; call = inactive
SSU72 #2 — log2 vehicle/camptothecin viability = -0.22; call = inactive
SSU72 #3 — log2 vehicle/camptothecin viability = 0.502; call = inactive
SSU72 #4 — log2 vehicle/camptothecin viability = -0.217; call = inactive
HECTD2 #1 — log2 vehicle/camptothecin viability = 0.266; call = inactive
HECTD2 #2 — log2 vehicle/camptothecin viability = -0.326; call = inactive
HECTD2 #3 — log2 vehicle/camptothecin viability = -0.236; call = inactive
HECTD2 #4 — log2 vehicle/camptothecin viability = -0.0414; call = inactive
IFT27 #1 — log2 vehicle/camptothecin viability = -0.43; call = inactive
IFT27 #2 — log2 vehicle/camptothecin viability = 0.248; call = inactive
IFT27 #3 — log2 vehicle/camptothecin viability = -0.178; call = inactive
IFT27 #4 — log2 vehicle/camptothecin viability = -0.178; call = inactive
TAF3 #1 — log2 vehicle/camptothecin viability = -0.192; call = inactive
TAF3 #2 — log2 vehicle/camptothecin viability = -0.501; call = inactive
TAF3 #3 — log2 vehicle/camptothecin viability = 0.141; call = inactive
ANTXR1 #1 — log2 vehicle/camptothecin viability = 0.131; call = inactive
ANTXR1 #2 — log2 vehicle/camptothecin viability = -0.293; call = inactive
ANTXR1 #3 — log2 vehicle/camptothecin viability = 0.186; call = inactive
ANTXR1 #4 — log2 vehicle/camptothecin viability = -0.0595; call = inactive
